# Source: the supplement of paper PMC3334620
# Whole data set: some 33,000 sequences, median “E-score (-0.5 to 0.5)” near -8e-05, cut for the highest 2% near 0.23. This is one part of the list.
# Target: T1, Nrg2 (UniProt P38082)
# T1 sequence: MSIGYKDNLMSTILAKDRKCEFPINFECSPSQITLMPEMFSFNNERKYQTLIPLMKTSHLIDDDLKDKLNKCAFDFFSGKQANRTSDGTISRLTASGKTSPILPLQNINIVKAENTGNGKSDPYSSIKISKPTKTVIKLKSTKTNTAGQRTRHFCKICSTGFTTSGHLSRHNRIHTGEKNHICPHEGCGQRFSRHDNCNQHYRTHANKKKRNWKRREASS
# Test: PBM E-score (8-mer binding enrichment) (E-score (-0.5 to 0.5)); higher = stronger / more preferred TF binding
# Details: protein concentration: 100 nM; construct: GST-full length
# Outline: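 Detection of bound protein used fluorescent anti-GST, with scans normalised by masliner. The proteins were GST-tagged yeast transcription factors applied at about 100-200 nM to universal all-10-mer Agilent arrays made double-stranded by primer extension. Each ungapped eight-base word, pooled with its reverse complement, was scored with an E-score from the Universal PBM Analysis Suite.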
row,Sequence,PBM E-score
1,ATCGCGAG,0.175
2,AGTAGCAG,0.146
3,GATTGTAC,-0.124
4,CCAATACA,0.116
5,GAAGTTAC,0.137
6,ATCATTCG,0.19
7,TACCAGCA,0.0995
8,CACCATAA,-0.0296
9,GGGAGCAC,-0.271
10,GTATTTTA,-0.125
11,GTCTAGGA,-0.141
12,AGGTGTGG,-0.0308
13,ACCTGTGA,-0.0357
14,AGATGGCG,0.128
15,TCCCAACA,0.0892
16,CGCTCAAG,-0.0971
17,CCTCAACA,0.0779
18,ACCCAGTC,0.0175
19,CGAAGCAA,0.0108
20,CAGTTCCA,0.0341
21,CACACTGC,-0.0211
22,AGTCCTAT,-0.129

# Part of the list above, set out differently:
row	Sequence	PBM E-score
9	GGGAGCAC	-0.271
12	AGGTGTGG	-0.0308

# The results go on:

row,Sequence,PBM E-score
1,GGACTTAA,-0.0982
2,AAAGTTCG,0.127
3,CGAACCAA,0.012
4,CCCGCGAG,0.118
5,AAAATCAC,0.155
6,AGTCAAGA,-0.0439
7,AAGGTGAA,0.073
8,GTAGAAAC,-0.0556
9,AACCGTAG,-0.116
10,AAAATTTT,-0.0254
11,ATTTGCTA,0.0846
12,CGAAAAAA,0.0964
13,ACGCTGCG,-0.0363
14,CTTACCTC,-0.214
15,ATCCCAGC,-0.158
16,TCAGAGGA,-0.0702
17,CGCTGCAG,0.0432
18,CAAGGCCG,-0.0785
19,AAGTAGTC,0.0558
20,GATGTTAC,-0.0708
21,GGCATAGA,0.0809
22,AGCCACTC,-0.109

row,Sequence,PBM E-score
1,CCGTTTCC,-0.11
2,CGTCCCTC,-0.0916
3,AAGTGGCT,0.0021
4,GCAGACTA,-0.0747
5,CCGAAAGC,-0.292
6,TAACGTGA,-0.232
7,GGGATGGA,0.091
8,CATGTTCG,-0.0368
9,GCATATCA,0.256
10,GCCTTTCC,-0.201
11,GGAAACCC,0.146
12,AAACCAAT,0.165
13,GCGTTAAA,-0.0934
14,CAACATGA,0.0641
15,CAGCTAAA,0.0375
16,GGGGAGAC,-0.171
17,AACGTATT,0.0259
18,AGCAGTAT,0.141
19,CTTCACGC,0.154
20,CTCCCGAA,-0.301
21,ATCCACTA,0.0691
22,CACAGTGC,-0.00765

# Part of the list above, bar-delimited.
row | Sequence | PBM E-score
17 | AACGTATT | 0.0259
18 | AGCAGTAT | 0.141
19 | CTTCACGC | 0.154
20 | CTCCCGAA | -0.301
21 | ATCCACTA | 0.0691
22 | CACAGTGC | -0.00765

# (listing goes on)

row,Sequence,PBM E-score
1,AAAATGCA,-0.0417
2,AACTCAGA,0.0624
3,CCTTTCCG,-0.116
4,AACGTGAT,-0.1
5,CCGATTGA,0.118
6,CCATGGCG,0.186
7,CCAAAATC,0.095
8,AGACGCCC,0.0394
9,GCGCCACA,0.0854
10,AAATTTTA,-0.00026
11,ATGTGCCA,-0.0589
12,AATTACAG,-0.0292
13,CCTATCCC,0.107
14,CTTAAAGC,0.0453
15,CCACTGGA,-0.0983
16,ATCCTGAG,0.0135
17,ACCCATCC,-0.0966
18,CATTAGTA,0.112
19,AAGTGGGG,-0.146
20,GAGCAATA,-0.0524
21,AGCACTTC,-0.121
22,TCGATAGA,-0.00082

row,Sequence,PBM E-score
1,TCATCAAA,-0.0353
2,TCGTTAAA,-0.0308
3,CACATCTC,0.0719
4,AGGCACCA,-0.0878
5,AATCGATA,0.158
6,ACCGTTAT,-0.223
7,ACTCATCA,0.0607
8,CCTCCAAG,-0.0442
9,ATTAACAA,0.179
10,GAACACCA,-0.0853
11,AGAGCCCG,-0.136
12,AATAGTTA,0.0707
13,ACGCCTAC,-0.191
14,GAATGACC,0.00602
15,CCTTCCGC,-0.0644
16,GAGGATCC,0.0757
17,GTCTCGTA,-0.0651
18,ACACATGC,-0.0391
19,AATCATGC,-0.0765
20,CTCAAGCA,-0.0465
21,ATCACCTA,-0.143
